Assay results: article PMC6072441
These are yes or no findings as the source states them, for the method shown. In cells and extracts the contact can be indirect. Some binding calls cover weakened binding; strength is not graded here. For part of these data: Sequences can lack the tags named with a protein. Values belong to the molecule of their own block, whether it stands above or below them.

Chains of the proteins cited; added tags and fusions are not shown.
UniProt O09106: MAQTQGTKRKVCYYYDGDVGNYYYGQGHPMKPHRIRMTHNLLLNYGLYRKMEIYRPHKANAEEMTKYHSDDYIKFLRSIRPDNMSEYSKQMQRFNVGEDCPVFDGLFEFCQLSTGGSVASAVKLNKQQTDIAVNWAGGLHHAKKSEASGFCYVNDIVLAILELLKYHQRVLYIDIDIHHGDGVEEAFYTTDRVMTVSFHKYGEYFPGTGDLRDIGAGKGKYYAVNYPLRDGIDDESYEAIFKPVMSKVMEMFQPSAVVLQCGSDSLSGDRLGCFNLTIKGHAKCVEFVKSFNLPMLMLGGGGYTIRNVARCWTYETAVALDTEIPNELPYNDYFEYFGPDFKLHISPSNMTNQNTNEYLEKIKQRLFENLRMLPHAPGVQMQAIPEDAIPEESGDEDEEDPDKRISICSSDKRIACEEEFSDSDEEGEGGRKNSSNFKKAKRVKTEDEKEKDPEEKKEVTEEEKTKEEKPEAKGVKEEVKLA
UniProt P70288: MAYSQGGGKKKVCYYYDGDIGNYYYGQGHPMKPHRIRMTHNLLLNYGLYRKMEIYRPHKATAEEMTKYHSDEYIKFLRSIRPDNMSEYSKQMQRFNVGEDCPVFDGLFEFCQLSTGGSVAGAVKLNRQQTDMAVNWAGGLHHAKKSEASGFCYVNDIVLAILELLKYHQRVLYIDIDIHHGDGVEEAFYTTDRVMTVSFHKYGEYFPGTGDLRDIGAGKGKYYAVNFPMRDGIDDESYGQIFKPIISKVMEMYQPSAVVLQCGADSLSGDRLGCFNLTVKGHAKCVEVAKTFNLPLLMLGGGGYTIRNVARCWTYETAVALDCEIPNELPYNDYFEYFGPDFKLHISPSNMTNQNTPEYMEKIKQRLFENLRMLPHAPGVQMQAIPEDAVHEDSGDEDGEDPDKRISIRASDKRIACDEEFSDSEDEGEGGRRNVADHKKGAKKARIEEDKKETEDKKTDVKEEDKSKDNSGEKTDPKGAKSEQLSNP

Tests used:
[1] = biological target: T1, Fam60a-Venus fusion protein (mouse) (UniProt Q8C8M1); assay: co-IP; nuclear extracts (RIPA buffer) of E10.5 WT embryos precipitated with bead-coupled anti-Fam60a, or of E10.5 Fam60a::Venus embryos with anti-GFP; control rabbit IgG; immunoblot for Sin3a, Hdac1, Hdac2
T1 sequence: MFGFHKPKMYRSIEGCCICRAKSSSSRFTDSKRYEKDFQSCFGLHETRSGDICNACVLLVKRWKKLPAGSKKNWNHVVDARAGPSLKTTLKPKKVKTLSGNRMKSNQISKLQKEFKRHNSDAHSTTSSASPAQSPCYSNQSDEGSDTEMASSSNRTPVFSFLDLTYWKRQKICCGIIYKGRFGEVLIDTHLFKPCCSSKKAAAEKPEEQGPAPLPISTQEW

[2] = biological target: T2, Fam60a (mouse (endogenous in E10.5 embryos and P19 cells)) (UniProt Q8C8M1); assay: as above
T2 sequence: T1 sequence

[3] = biological target: T2, Fam60a (mouse (endogenous in E10.5 embryos and P19 cells)); assay: co-IP; nuclear extracts (RIPA buffer) of undifferentiated P19 cells precipitated with bead-coupled anti-Fam60a; immunoblot for Sin3a, Hdac1, Hdac2
[4] = biological target: T3, Sin3a (mouse (endogenous in E10.5 embryos, P19 cells and ES cells)) (UniProt Q60520); assay: co-IP; nuclear extracts of Fam60a flox/– and Fam60a –/– ES cells precipitated with antibodies to Sin3a; silver staining and immunoblot
T3 sequence: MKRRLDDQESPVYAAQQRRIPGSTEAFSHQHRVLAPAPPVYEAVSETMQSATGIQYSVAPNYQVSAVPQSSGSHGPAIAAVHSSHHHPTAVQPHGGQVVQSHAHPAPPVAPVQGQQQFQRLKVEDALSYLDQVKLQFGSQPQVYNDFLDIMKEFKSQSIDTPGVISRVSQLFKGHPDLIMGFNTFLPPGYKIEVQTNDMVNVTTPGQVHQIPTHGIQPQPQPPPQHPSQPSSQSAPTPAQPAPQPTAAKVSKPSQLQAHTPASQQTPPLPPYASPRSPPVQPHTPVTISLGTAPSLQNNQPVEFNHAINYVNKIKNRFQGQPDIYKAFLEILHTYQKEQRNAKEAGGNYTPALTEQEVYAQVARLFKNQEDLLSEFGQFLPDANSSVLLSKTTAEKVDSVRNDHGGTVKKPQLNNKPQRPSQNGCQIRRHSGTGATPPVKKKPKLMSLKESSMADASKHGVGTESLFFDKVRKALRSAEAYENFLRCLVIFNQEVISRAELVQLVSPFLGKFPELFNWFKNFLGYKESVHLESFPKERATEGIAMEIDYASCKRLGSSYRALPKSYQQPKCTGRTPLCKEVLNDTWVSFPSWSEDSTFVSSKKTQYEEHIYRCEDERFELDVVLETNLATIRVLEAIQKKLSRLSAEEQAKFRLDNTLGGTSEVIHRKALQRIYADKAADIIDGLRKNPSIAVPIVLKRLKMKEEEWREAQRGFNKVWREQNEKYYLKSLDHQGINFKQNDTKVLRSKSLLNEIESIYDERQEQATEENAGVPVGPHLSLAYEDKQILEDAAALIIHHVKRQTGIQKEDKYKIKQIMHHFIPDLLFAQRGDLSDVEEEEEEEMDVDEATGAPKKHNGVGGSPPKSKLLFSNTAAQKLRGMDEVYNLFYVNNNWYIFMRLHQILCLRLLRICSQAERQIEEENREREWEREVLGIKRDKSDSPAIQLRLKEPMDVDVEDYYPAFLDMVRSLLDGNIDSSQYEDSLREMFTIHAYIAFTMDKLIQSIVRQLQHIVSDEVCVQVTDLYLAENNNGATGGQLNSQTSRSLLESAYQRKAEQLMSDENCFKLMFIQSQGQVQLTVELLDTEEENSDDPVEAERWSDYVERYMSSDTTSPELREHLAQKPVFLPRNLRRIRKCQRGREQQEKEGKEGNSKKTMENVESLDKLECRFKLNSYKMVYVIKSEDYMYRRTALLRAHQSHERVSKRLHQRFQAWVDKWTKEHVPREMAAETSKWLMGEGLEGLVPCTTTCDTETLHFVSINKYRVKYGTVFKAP

[5] = biological target: T1, Fam60a-Venus fusion protein (mouse); assay: co-IP; nuclear extracts of E10.5 Fam60a-Venus transgenic embryos prepared with RIPA buffer or buffer C, precipitated with antibodies to GFP or control IgG; immunoblot for Ing2

binding [1]: binds | binding [2]: binds | binding [3]: binds | binding [4]: binds
Molecule: Hdac1 (from UniProt O09106 1-482) (enzyme)

binding [4]: binds
Molecule: Hdac2 (from UniProt P70288 1-488) (enzyme)

binding [5]: binds
B1: Ing2 (protein, UniProt Q9ESK4 1-281)
chain: MLGQQQQQQLYSSAALLTGERSRLLSCYVQDYLECVESLPHDMQRNVSVLRELDNKYQETLKEIDDVYEKYKKEDDSNQKKRLQQHLQRALINSQELGDEKIQIVTQMLELVENRARQMELHSQCFQDPAESERASDKSKMDSSQPERSSRRPRRQRTSESRDLCHMTNGIDDCDDQPPKEKRSKSAKKKKRSKAKQEREASPVEFAIDPNEPTYCLCNQVSYGEMIGCDNEQCPIEWFHFSCVSLTYKPKGKWYCPKCRGDNEKTMDKSTEKTKKERRAR

binding [1]: binds | binding [2]: binds | binding [3]: binds
B2: Sin3a (protein, UniProt Q60520 1-1274)
chain: T3 sequence
